Reference: PubChem BioAssay AID1259308 (NCATS, 2017)
In all, the deposit lists about 59,000 reagents; shown is a part drawn at random. About 1,510 of all reagents (2.6%) count as active. 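Calls use total luciferase alone and ignore viability, so some active siRNAs may act by altering cell number.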 Unmarked entries are inactive. Reagents against one gene are numbered here. Not all columns of the deposit are shown. No sequences are given here.

- Test: 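Candidate targets for better recombinant protein yield in mammalian cells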 (primary screen)
- System: human HEK293 embryonic kidney cells stably expressing firefly luciferase (HEK-CMV-Luc2-Hygro)
- Reagent: single siRNA against human genes, 0.8 pmol siRNA per well
- Duration: 72 h
- Measured: 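Reporter luminescence and viable-cell signal on separate replicate plates, given as percent of non-targeting control and median/MAD z-scores, plus per-cell luciferase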
- Reading the numbers: total luciferase, z-score: higher = more reporter protein produced
- Call rule: 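Active when the median/MAD z-score for overall luciferase is greater than 3; a gene was taken forward for validation with new siRNAs if at least two of its three siRNAs passed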
- Calls: active = raised luciferase; inactive = no rise

total luciferase, z-score, by target and reagent
NLRP13 (GeneID 126204): #1 -0.206; #2 -0.0926; #3 -2.4
ACOT11 (GeneID 26027): #1 -2.48; #2 -0.0885; #3 2.69
SRFBP1 (GeneID 153443): #1 -0.747; #2 -1.99; #3 -1.27
NOTO (GeneID 344022): #1 -1.58; #2 0.622; #3 -0.672
RPL14P1 (GeneID 144581): #1 -2.51; #2 -2.84; #3 -3.6
GS1-24F4.2 (GeneID 100652791): #1 -0.894; #2 -0.909; #3 1.57
WDR36 (GeneID 134430): #1 2.59; #2 -0.828; #3 -0.589
SHD (GeneID 56961): #1 0.153; #2 -0.502; #3 0.668
TMEM123 (GeneID 114908): #1 -0.134; #2 0.536; #3 -2.31
SIM1 (GeneID 6492): #1 -0.504; #2 0.215; #3 0.45
MUC4 (GeneID 4585): #1 -1.95; #2 0.606; #3 -2.15
ANP32E (GeneID 81611): #1 0.568; #2 -2.2; #3 -0.832
WNT16 (GeneID 51384): #1 3.05 (active); #2 -0.648; #3 0.985
DYRK1A (GeneID 1859): #1 -0.704; #2 -0.813; #3 -1.09
GRAMD2A (GeneID 196996): #1 4.02 (active); #2 0.29; #3 0.27
AGPS (GeneID 8540): #1 -0.9; #2 0.481; #3 0.202
TBC1D16 (GeneID 125058): #1 1.94; #2 1.02; #3 -0.345
PNMA8A (GeneID 55228): #1 0.878; #2 0.174; #3 0.327
CDK14 (GeneID 5218): #1 -2.01; #2 1.53; #3 -0.382

Look-ups from the list:
Value of GRAMD2A (GeneID 196996) #2 in “total luciferase, z-score”: 0.29
TMEM123 (GeneID 114908) #1, total luciferase, z-score: -0.134
